Results deposited as PubChem BioAssay AID1224830 (NIAID, 2016)

Test: 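Genes whose knock-down alters the TNF-alpha reporter response to LPS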 (primary screen)
Cell system: human THP-1 monocytic leukaemia cells, TNF dual-luciferase reporter clone, PMA-differentiated to macrophage-like cells
Knock-down reagent: siRNA pool against human genes, 50 nM
Duration: LPS for 4 h, given about 3 days after siRNA transfection
Conditions: bacterial LPS (TLR4 ligand), 10 ng/ml
Measurement: 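TNF firefly reporter luminescence divided by renilla, normalised to the plate median, then turned into a robust z-score for each replicate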
Reading the numbers: TNF reporter robust z-score: higher = stronger TNF reporter response to LPS
Hit rule: 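a well is active when its z-score exceeds 2.8 or falls below -1.5; control wells carry no call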
This is an unselected part of about 18,000 reagents tested. Of all reagents, about 2,900 (16%) were called active. 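Calls are made per well; low scores hint the gene aids the LPS response, high scores that it dampens it.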 Repeated entries: four replicate wells of each siRNA pool.

The first 12 records as a preview:
no.	Target gene	TNF reporter robust z-score	activity call
1	SURF4	-0.29	inactive
2	SURF4	0.05	inactive
3	SURF4	0.18	inactive
4	SURF4	0.4	inactive
5	CAMK1D	-1.47	inactive
6	CAMK1D	-0.62	inactive
7	CAMK1D	-1.15	inactive
8	CAMK1D	-0.01	inactive
9	MZT2B	-1.61	active
10	MZT2B	-0.87	inactive
11	MZT2B	-1.16	inactive
12	MZT2B	-1.03	inactive

The list itself, from the first entry:
no.	Target gene	TNF reporter robust z-score	activity call
1	SURF4	-0.29	inactive
2	SURF4	0.05	inactive
3	SURF4	0.18	inactive
4	SURF4	0.4	inactive
5	CAMK1D	-1.47	inactive
6	CAMK1D	-0.62	inactive
7	CAMK1D	-1.15	inactive
8	CAMK1D	-0.01	inactive
9	MZT2B	-1.61	active
10	MZT2B	-0.87	inactive
11	MZT2B	-1.16	inactive
12	MZT2B	-1.03	inactive
13	TMEM179B	0.19	inactive
14	TMEM179B	-0.56	inactive
15	TMEM179B	-0.11	inactive
16	TMEM179B	-0.57	inactive
17	UCK1	0.26	inactive
18	UCK1	1.71	inactive
19	UCK1	0.03	inactive
20	UCK1	-0.69	inactive
21	NEDD4L	-1.28	inactive
22	NEDD4L	0.37	inactive
23	NEDD4L	0.32	inactive
24	NEDD4L	0.77	inactive
25	KCNAB1	-1.54	active
26	KCNAB1	-1	inactive
27	KCNAB1	-1.34	inactive
28	KCNAB1	-1.73	active
29	MUSTN1	-1.04	inactive
30	MUSTN1	-0.89	inactive
31	MUSTN1	-1.4	inactive
32	MUSTN1	-0.9	inactive
33	ELOVL5	0.86	inactive
34	ELOVL5	1.26	inactive
35	ELOVL5	1.2	inactive
36	ELOVL5	0.24	inactive
37	SMTNL2	0.62	inactive
38	SMTNL2	1.54	inactive
39	SMTNL2	1.46	inactive
40	SMTNL2	1.78	inactive
41	SLC16A7	0.8	inactive
42	SLC16A7	1.53	inactive
43	SLC16A7	0.88	inactive
44	SLC16A7	1.11	inactive
45	ZNF681	-1.34	inactive
46	ZNF681	-0.74	inactive
47	ZNF681	-0.91	inactive
48	ZNF681	-0.68	inactive
49	GTSE1	0.15	inactive
50	GTSE1	-0.86	inactive
51	GTSE1	-1.99	active
52	GTSE1	-1.29	inactive
53	CERS6	0.26	inactive
54	CERS6	0.72	inactive
55	CERS6	0.86	inactive
56	CERS6	0.91	inactive
57	AGXT	-0.86	inactive
58	AGXT	-0.75	inactive
59	AGXT	-1.1	inactive
60	AGXT	-0.34	inactive
61	SINHCAF	0.01	inactive
62	SINHCAF	-0.06	inactive
63	SINHCAF	-0.69	inactive
64	SINHCAF	-0.87	inactive
65	GSDMC	-1.58	active
66	GSDMC	2.09	inactive
67	GSDMC	0.39	inactive
68	GSDMC	1.89	inactive
69	SERTM1	-0.69	inactive
70	SERTM1	-0.49	inactive
71	SERTM1	-0.81	inactive
72	SERTM1	-0.22	inactive
73	GAS2	-0.76	inactive
74	GAS2	-0.91	inactive
75	GAS2	-0.95	inactive
76	GAS2	-1.07	inactive
77	ASPRV1	-0.68	inactive
78	ASPRV1	-0.24	inactive
79	ASPRV1	-1.66	active
80	ASPRV1	-0.82	inactive
81	SYCP2	-0.01	inactive
82	SYCP2	0.96	inactive
83	SYCP2	0.3	inactive
84	SYCP2	0.45	inactive
85	NR2C2AP	2.02	inactive
86	NR2C2AP	3.07	active
87	NR2C2AP	1.32	inactive
88	NR2C2AP	1.09	inactive
89	PRSS12	-0.36	inactive
90	PRSS12	0.09	inactive
91	PRSS12	0.08	inactive
92	PRSS12	1.95	inactive
93	THUMPD2	1.93	inactive
94	THUMPD2	3.7	active
95	THUMPD2	3.52	active
96	THUMPD2	4.64	active
97	FAM181B	0.66	inactive
98	FAM181B	0.36	inactive
99	FAM181B	1.77	inactive
100	FAM181B	1.01	inactive
101	PRDX5	-0.63	inactive
102	PRDX5	0.06	inactive
103	PRDX5	-0.78	inactive
104	PRDX5	0.76	inactive
105	CFHR1	0.6	inactive
106	CFHR1	0.77	inactive
107	CFHR1	0.64	inactive
108	CFHR1	1.21	inactive
109	RLF	0.17	inactive
110	RLF	-0.17	inactive
111	RLF	1.4	inactive
112	RLF	-0.18	inactive
